Test results as given in patent US20070037193A1, “Modulation of peroxisome proliferator-activated receptors” (priority 2005, published 2007).
For at least one compound, name, drawing or mass did not settle the structure.

Test system: PPAR-gamma target genes
Test: Protein expression of adipogenesis-specific PPAR-gamma target genes in 3T3-L1 cells
Assay type: cell-based
Excerpt: Also examined was the ability of 15-keto PGE2 to induce protein expression of adipogenesis-specific, PPAR-gamma target genes, i.e., IRS-1 and -2.

CN(CCOc1ccc(CC2SC(=O)NC2=O)cc1)c1ccccn1 (stereo not drawn) [BRL49653]
amount of IRS-1 protein: did not increase the amount of IRS-1 protein
expression of aP2 (even in the absence of MIX): strongly induced expression of aP2
IRS-2 expression (in the presence of insulin and dexamethasone): dramatically increased IRS-2 expression
